No constants are given. Whether binding was seen depends on the method and setting. In cells and extracts the contact can be indirect. Some binding calls cover weakened binding; strength is not graded here. For some assays here: Where a sequence is shown, tags or fusion partners need not be part of it.
What was measured:
[1] = biological target: T1, Polymerase δ interacting protein of 38 kDa (PDIP38), endogenous (human (endogenous in HeLa)) (UniProt Q9Y2S7); assay: co-IP; endogenous proteins from detergent-solubilised HeLa mitochondria; anti-PDIP38 or anti-CLPX antibodies covalently attached to protein A sepharose; IP buffer pH 7.5, 100 mM KCl, 0.5% Triton X-100, 10 mM ATP, 1 h at 4 °C; preimmune serum as control
T1 sequence: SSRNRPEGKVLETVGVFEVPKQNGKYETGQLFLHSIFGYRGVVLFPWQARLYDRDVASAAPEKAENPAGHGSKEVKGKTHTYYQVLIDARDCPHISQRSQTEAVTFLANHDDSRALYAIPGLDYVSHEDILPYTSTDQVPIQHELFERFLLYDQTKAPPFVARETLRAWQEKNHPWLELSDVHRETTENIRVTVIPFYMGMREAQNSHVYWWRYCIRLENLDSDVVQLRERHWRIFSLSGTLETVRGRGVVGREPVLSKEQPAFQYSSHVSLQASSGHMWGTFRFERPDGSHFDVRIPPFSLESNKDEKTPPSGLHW

Protein sequences, listed by entry. Tags and fused reporters are not part of them. Residues count along the entry.
UniProt O76031, residues 57-633: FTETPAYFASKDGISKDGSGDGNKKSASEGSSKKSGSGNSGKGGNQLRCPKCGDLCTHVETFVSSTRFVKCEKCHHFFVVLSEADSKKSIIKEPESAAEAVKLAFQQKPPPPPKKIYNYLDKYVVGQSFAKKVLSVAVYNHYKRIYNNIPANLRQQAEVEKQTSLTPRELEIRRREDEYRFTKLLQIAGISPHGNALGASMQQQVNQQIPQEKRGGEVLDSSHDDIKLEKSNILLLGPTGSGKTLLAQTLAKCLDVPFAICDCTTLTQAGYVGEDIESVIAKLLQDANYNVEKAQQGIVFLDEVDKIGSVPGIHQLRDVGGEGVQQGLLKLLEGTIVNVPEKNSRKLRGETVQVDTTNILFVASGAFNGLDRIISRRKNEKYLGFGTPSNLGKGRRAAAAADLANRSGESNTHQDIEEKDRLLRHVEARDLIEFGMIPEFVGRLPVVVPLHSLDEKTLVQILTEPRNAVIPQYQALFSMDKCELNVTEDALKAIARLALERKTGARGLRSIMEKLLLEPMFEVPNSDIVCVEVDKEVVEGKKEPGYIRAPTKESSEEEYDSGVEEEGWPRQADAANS

[2] = biological target: T2, His10-tagged recombinant PDIP38 (H10PDIP38) (human) (UniProt Q9Y2S7); assay: pull-down; H10PDIP38 immobilised to Ni-NTA agarose, detergent-solubilised HeLa mitochondria applied; only the target purified
T2 sequence: T1 sequence

binding [1]: binds
binding [2]: binds
Substance: CLPX, endogenous (from UniProt O76031 57-633)
